{"source": "patent US20250177558A1", "about": "“Functionalized Nanoclusters and Their Use in Treating Bacterial Infections” (priority 2022, published 2025)", "key": {"[1]": {"system": "stationary phase culture of gram-negative bacteria", "conditions": "conventional antibiotics, refs [54-56]; cited from earlier work"}, "PAO1Cip21": {"system": "PAO1Cip21", "assay": "Disc diffusion susceptibility (cross-resistance)", "format": "cell-based, Pseudomonas aeruginosa", "conditions": "isolate after 21 passages in subinhibitory Ciprofloxacin; 5 μg discs"}}, "note": "At least one structure is not confirmed: it was looked up by name or label, or the drawing left a doubt."}
{"smiles": "CC1COc2c(N3CCN(C)CC3)c(F)cc3c(=O)c(C(=O)O)cn1c23", "note": "(centres unmarked) [Ofloxacin]", "values": [{"measurement": "cell lysis", "setting": "[1]", "value": "cause bacteria cell lysis"}]}
{"smiles": "C[C@@H](O)[C@H]1C(=O)N2C(C(=O)O)=C(SCCN=CN)C[C@H]12", "note": "[Imipenem]", "values": [{"measurement": "inhibition zone diameter compared to the ancestor PAO1", "setting": "PAO1Cip21", "value": "decrease in inhibition zone diameter"}]}
